Test results reported in US20240373847A1, “HERBICIDAL MALONAMIDES” (BASF SE, priority 2021, published 2024).
Some of these results come from one statement about several compounds together. At least one compound was matched to its structure with a doubt left.

Legend:
Type in all cases: in vivo
[1] = tested on: Abutilon theophrasti (ABUTH); test: greenhouse test, pre-emergence treatment; conditions: pre-emergence method, scale from 0 to 100
[2] = tested on: Echinocloa crus-galli (ECHCG); test: greenhouse test, pre-emergence treatment; conditions: 1.000 kg/ha, pre-emergence method; scale from 0 to 100
Setaria faberi (SETFA) = test: greenhouse test, pre-emergence treatment; conditions: 1.000 kg/ha, pre-emergence method; scale from 0 to 100
[3] = tested on: Abutilon theophrasti (ABUTH); test: greenhouse test, post-emergence treatment; conditions: 1.000 kg/ha, post-emergence method; scale from 0 to 100
[4] = tested on: Amaranthus retroflexus (AMARE); test: greenhouse test, post-emergence treatment; conditions: post-emergence method, scale from 0 to 100
[5] = tested on: Echinocloa crus-galli (ECHCG); test: greenhouse test, post-emergence treatment; conditions: post-emergence method, scale from 0 to 100
[6] = tested on: Digitaria sanguinalis (DIGSA); test: greenhouse test, pre-emergence treatment; conditions: pre-emergence method, scale from 0 to 100
[7] = tested on: Lolium multiflorum (LOLMU); test: greenhouse test, pre-emergence treatment; conditions: pre-emergence method, scale from 0 to 100
Setaria viridis (SETVI) [8] = test: greenhouse test, pre-emergence treatment; conditions: pre-emergence method, scale from 0 to 100
[9] = tested on: Alopercurus myosuroides (ALOMY); test: greenhouse test, post-emergence treatment; conditions: post-emergence method, scale from 0 to 100
Avena fatua (AVEFA) = test: greenhouse test, post-emergence treatment; conditions: 0.250 kg/ha, post-emergence method; scale from 0 to 100
[10] = tested on: Apera spica-venti (APESV); test: greenhouse test, pre-emergence treatment; conditions: 0.250 kg/ha, pre-emergence method; scale from 0 to 100
Setaria viridis (SETVI) [11] = test: greenhouse test, post-emergence treatment; conditions: 0.250 kg/ha, post-emergence method; scale from 0 to 100

CCC(C(=O)Nc1cccc(Cl)c1)C(=O)NC1C=CC(C(=O)O)C1 (mixture of isomers) [I.126]
herbicidal activity against ABUTH ([1]; 1.000 kg/ha): good herbicidal activity (A good herbicidal activity is given at values of 70 to <90) | herbicidal activity against ECHCG [2]: very good herbicidal activity (a very good herbicidal activity is given at values of 90 to 100) | herbicidal activity against SETFA (Setaria faberi (SETFA)): good herbicidal activity (A good herbicidal activity is given at values of 70 to <90) | herbicidal activity against ABUTH [3]: very good herbicidal activity (a very good herbicidal activity is given at values of 90 to 100) | herbicidal activity against AMARE ([4]; 1.000 kg/ha): very good herbicidal activity (a very good herbicidal activity is given at values of 90 to 100) | herbicidal activity against ECHCG ([5]; 1.000 kg/ha): very good herbicidal activity (a very good herbicidal activity is given at values of 90 to 100)

CCC(C(=O)Nc1cc(F)cc(F)c1)C(=O)NC1C=CC(C(=O)O)C1 (mixture of isomers) [I.127]
herbicidal activity against ABUTH ([1]; 1.000 kg/ha): good herbicidal activity (A good herbicidal activity is given at values of 70 to <90) | herbicidal activity against ECHCG [2]: good herbicidal activity (A good herbicidal activity is given at values of 70 to <90) | herbicidal activity against SETFA (Setaria faberi (SETFA)): good herbicidal activity (A good herbicidal activity is given at values of 70 to <90) | herbicidal activity against ABUTH [3]: good herbicidal activity (A good herbicidal activity is given at values of 70 to <90) | herbicidal activity against AMARE ([4]; 1.000 kg/ha): very good herbicidal activity (a very good herbicidal activity is given at values of 90 to 100) | herbicidal activity against ECHCG ([5]; 1.000 kg/ha): very good herbicidal activity (a very good herbicidal activity is given at values of 90 to 100)

COC(=O)C1C=CC(NC(=O)C(C)C(=O)Nc2cc(Cl)cc(Cl)c2)C1 (mixture of isomers) [I.152]
herbicidal activity against DIGSA ([6]; 0.250 kg/ha): good herbicidal activity (A good herbicidal activity is given at values of 70 to <90) | herbicidal activity against LOLMU ([7]; 0.250 kg/ha): good herbicidal activity (A good herbicidal activity is given at values of 70 to <90) | herbicidal activity against SETVI (Setaria viridis (SETVI) [8]; 0.250 kg/ha): good herbicidal activity (A good herbicidal activity is given at values of 70 to <90) | herbicidal activity against ALOMY ([9]; 0.250 kg/ha): very good herbicidal activity (a very good herbicidal activity is given at values of 90 to 100) | herbicidal activity against AVEFA (Avena fatua (AVEFA)): very good herbicidal activity (a very good herbicidal activity is given at values of 90 to 100) | herbicidal activity against ECHCG ([5]; 0.250 kg/ha): very good herbicidal activity (a very good herbicidal activity is given at values of 90 to 100)

CCOC(=O)C1C=CC(NC(=O)C(CC)C(=O)Nc2cccc(OC(F)(F)F)c2)C1 (mixture of isomers) [I.158]
herbicidal activity against DIGSA ([6]; 0.250 kg/ha): very good herbicidal activity (a very good herbicidal activity is given at values of 90 to 100) | herbicidal activity against SETVI (Setaria viridis (SETVI) [8]; 0.250 kg/ha): good herbicidal activity (A good herbicidal activity is given at values of 70 to <90) | herbicidal activity against AVEFA (Avena fatua (AVEFA)): good herbicidal activity (A good herbicidal activity is given at values of 70 to <90) | herbicidal activity against AMARE ([4]; 0.250 kg/ha): very good herbicidal activity (a very good herbicidal activity is given at values of 90 to 100) | herbicidal activity against ECHCG ([5]; 0.250 kg/ha): very good herbicidal activity (a very good herbicidal activity is given at values of 90 to 100)

Cc1cc(F)cc(NC(=O)C(C)C(=O)NC(C)CC(=O)OC(C)C)c1 (centres unmarked) [I.13]
herbicidal activity against ABUTH ([1]; 0.250 kg/ha): very good herbicidal activity (a very good herbicidal activity is given at values of 90 to 100) | herbicidal activity against APESV [10]: good herbicidal activity (A good herbicidal activity is given at values of 70 to <90)

Cc1cc(F)cc(NC(=O)C(C)C(=O)NC(C)CC(=O)NS(=O)(=O)C(C)C)c1 (centres unmarked) [I.22]
herbicidal activity against ABUTH ([1]; 0.250 kg/ha): very good herbicidal activity (a very good herbicidal activity is given at values of 90 to 100) | herbicidal activity against AMARE ([4]; 0.250 kg/ha): good herbicidal activity (A good herbicidal activity is given at values of 70 to <90)

CCC(C(=O)Nc1cccc(F)c1)C(=O)N[C@H]1C=C[C@@H](C(=O)OC)C1 (some centres unmarked) [I.99]
herbicidal activity against ABUTH ([1]; 0.250 kg/ha): good herbicidal activity (A good herbicidal activity is given at values of 70 to <90) | herbicidal activity against APESV [10]: good herbicidal activity (A good herbicidal activity is given at values of 70 to <90) | herbicidal activity against AMARE ([4]; 0.250 kg/ha): very good herbicidal activity (a very good herbicidal activity is given at values of 90 to 100) | herbicidal activity against ECHCG ([5]; 0.250 kg/ha): very good herbicidal activity (a very good herbicidal activity is given at values of 90 to 100) | herbicidal activity against SETVI (Setaria viridis (SETVI) [11]): very good herbicidal activity (a very good herbicidal activity is given at values of 90 to 100)

CCC(C(=O)Nc1cccc(OC(F)(F)F)c1)C(=O)N[C@H]1C=C[C@@H](C(=O)O)C1 (some centres unmarked) [I.141]
herbicidal activity against DIGSA ([6]; 1.000 kg/ha): very good herbicidal activity (a very good herbicidal activity is given at values of 90 to 100) | herbicidal activity against LOLMU ([7]; 1.000 kg/ha): very good herbicidal activity (a very good herbicidal activity is given at values of 90 to 100) | herbicidal activity against SETVI (Setaria viridis (SETVI) [8]; 1.000 kg/ha): good herbicidal activity (A good herbicidal activity is given at values of 70 to <90) | herbicidal activity against ALOMY ([9]; 1.000 kg/ha): very good herbicidal activity (a very good herbicidal activity is given at values of 90 to 100) | herbicidal activity against AMARE ([4]; 1.000 kg/ha): very good herbicidal activity (a very good herbicidal activity is given at values of 90 to 100) | herbicidal activity against ECHCG ([5]; 1.000 kg/ha): very good herbicidal activity (a very good herbicidal activity is given at values of 90 to 100)

CCC(C(=O)Nc1cccc(OC(F)(F)F)c1)C(=O)N[C@H]1C=C[C@@H](C(=O)OC(C)C)C1 (some centres unmarked) [I.159]
herbicidal activity against DIGSA ([6]; 0.250 kg/ha): very good herbicidal activity (a very good herbicidal activity is given at values of 90 to 100) | herbicidal activity against LOLMU ([7]; 0.250 kg/ha): good herbicidal activity (A good herbicidal activity is given at values of 70 to <90) | herbicidal activity against SETVI (Setaria viridis (SETVI) [8]; 0.250 kg/ha): good herbicidal activity (A good herbicidal activity is given at values of 70 to <90) | herbicidal activity against AVEFA (Avena fatua (AVEFA)): very good herbicidal activity (a very good herbicidal activity is given at values of 90 to 100) | herbicidal activity against AMARE ([4]; 0.250 kg/ha): very good herbicidal activity (a very good herbicidal activity is given at values of 90 to 100) | herbicidal activity against ECHCG ([5]; 0.250 kg/ha): very good herbicidal activity (a very good herbicidal activity is given at values of 90 to 100)

CCC(C(=O)Nc1cccc(OC(F)(F)F)c1)C(=O)N[C@H]1C=C[C@@H](C(=O)OCC#N)C1 (some centres unmarked) [I.163]
herbicidal activity against DIGSA ([6]; 0.250 kg/ha): good herbicidal activity (A good herbicidal activity is given at values of 70 to <90) | herbicidal activity against LOLMU ([7]; 0.250 kg/ha): good herbicidal activity (A good herbicidal activity is given at values of 70 to <90) | herbicidal activity against SETVI (Setaria viridis (SETVI) [8]; 0.250 kg/ha): good herbicidal activity (A good herbicidal activity is given at values of 70 to <90) | herbicidal activity against ALOMY ([9]; 0.250 kg/ha): very good herbicidal activity (a very good herbicidal activity is given at values of 90 to 100) | herbicidal activity against AMARE ([4]; 0.250 kg/ha): good herbicidal activity (A good herbicidal activity is given at values of 70 to <90) | herbicidal activity against ECHCG ([5]; 0.250 kg/ha): very good herbicidal activity (a very good herbicidal activity is given at values of 90 to 100)
